Data on 52 compounds can be found in paper PMC12040169 (PLOS Biology, 2025).

The list shows a part of the results.

The subject of this assay is T1, CTL2-GFP (C. trachomatis L2/434/Bu, GFP-expressing).
T1 construct: L2/434/Bu, GFP-expressing
Also noted: species or system HeLa; Intracellular C. trachomatis growth in HeLa cells, bulk GFP fluorescence relative to DMSO. Particulars: bulk GFP, single well; 28.5 h, 10 µM; inhibitor.
Turning to `CC(C)C(=O)NC(NC(=S)Nc1cccc2cccnc12)C(Cl)(Cl)Cl` (stereo not shown) [CBK261051], the “% of control remaining” value is 100.728%. As for `Cc1ccc(-c2nn(CCC#N)cc2C(=O)N2CCOCC2)cc1` [CBK305939], the “% of control remaining” value was 82.0458%.

With `CSc1nnc(CC2CCN(C(=O)c3cc(C)on3)CC2)n1C` [CBK307481], the “% of control remaining” value is 106.285%.

For `Nc1ncc(-c2ccc(Cl)cc2)nc1-c1ccc(N2CCOCC2)cc1` [CBK063953], the “% of control remaining” value was determined as 90.5332%. Turning to `Nc1nonc1-c1cccnc1` [CBK006120], the “% of control remaining” value was 100%. The same measure for `O=C(O)CC1S/C(=N/N=C2/C(=O)Nc3ccccc32)N(c2ccc(O)cc2)C1=O` (stereo not shown) [CBK263723]: 92.4206%. The same measure for `CC(C)c1nccn1-c1ccc(NC(=O)CCCn2ccnc2)cc1` [CBK281380]: 98.6368%. To `COc1cc(Cn2ncc(N3CCCCC3)cc2=O)cc(OC)c1` [CBK307662] belongs 94.4285%. As to `Cc1nccn1CCNC(=O)c1cc(C2CCCCC2)no1` [CBK283295], the “% of control remaining” value turned out to be 116.119%. To `CS(=O)(=O)c1ccc(Cn2ccnc(N3CCC(Sc4ccccc4)CC3)c2=O)cc1` [CBK144444] belongs 115.2%.

Regarding `O=C(CCn1cnc2ccccc21)NNC(=O)Nc1cccc(C(F)(F)F)c1` [CBK269093], the “% of control remaining” value is 145.56%. To `CCOC(=O)c1ccc(-c2nccnc2Oc2cccc(OC)c2)cc1` [CBK107115] belongs 183.813%. The same measure for `COc1ccc(-c2cccc(C3CCCN(C(=O)c4ccc(F)cc4)C3)n2)cc1` (stereo not shown) [CBK286107]: 119.314%; for `CCC(CO)Nc1nccnc1-c1cccc(C(=O)N2CCN(C)CC2)c1` (stereo not shown) [CBK037087]: 175.29%; for `Cn1ccnc1C1(O)CCN(C(=O)Nc2ccccc2Cl)CC1` [CBK282278]: 109.624%. Turning to `O=C(Nc1ccc(S(=O)(=O)Nc2ncccn2)cc1)c1cc([N+](=O)[O-])ccc1Cl` [CBK263717], the “% of control remaining” value amounted to 137.203%. On to `COc1cccc(-c2noc(C3CCN(CCc4ccc(F)cc4)CC3)n2)c1` [CBK051461], for which the “% of control remaining” value was 106.355%.

In the case of `CCOC(=O)c1c(NC(=O)c2ccccc2C(=O)O)sc2c1CCCC2` [CBK116364], the “% of control remaining” value was 122.79%. To `O=C(NCc1ccco1)c1ccc(-c2ccoc2)nc1` [CBK156279] belongs 94.0182%; to `O=C(CNC(=O)c1ccc(Br)cc1)NC1CCCC1` [CBK269591], 143.192%. Turning to `CC(=O)Cn1cnc2c(cnn2-c2cccc(Cl)c2)c1=O` [CBK287692], the “% of control remaining” value amounted to 127.845%. Consider `O=C(Nc1ccccc1)OC1CCCCC1` [CBK015569], for which the “% of control remaining” value stood at 88.6116%. Consider `CC(C)C(=O)N1CCN(c2ccccc2NC(=O)c2ccc(N3CCCCC3)c([N+](=O)[O-])c2)CC1` [CBK267609], for which the “% of control remaining” value was 122.419%. In the case of `O=C(O)c1ccccc1NS(=O)(=O)/C=C/c1ccccc1` [CBK042363], the “% of control remaining” value stood at 116.507%. Take `O=C(CCSc1c(Cl)cccc1[N+](=O)[O-])Nc1ccc(Br)c2cccnc12` [CBK266777]: the “% of control remaining” value is recorded as 119.695%. For the compound `CCN1CCc2cc(CN3CCCC(Cn4ccnc4C)C3)ccc21` (stereo not shown) [CBK281965], the “% of control remaining” value is 112.201%. The same measure for `CCN(CCO)c1ccc(Nc2nc(-c3cccc4ccccc34)cn3ccnc23)cc1` [CBK066243]: 173.636%; for `CNC(=O)CN1C[C@H](NC(=O)c2cccc3c2NCCC3)[C@@H](C(C)C)C1` [CBK307073]: 106.543%. On to `O=c1ccc(-c2ccc(F)cc2)nn1CC1CCNCC1` [CBK284216], for which the “% of control remaining” value was determined as 107.659%. With `O=C(CSc1nnc(-c2cccnc2)n1-c1ccc(Br)cc1)Nc1ccc(F)cc1` [CBK266174], the “% of control remaining” value was 128.905%. The same measure for `CC(=O)c1ccc(-c2nccnc2NCC(O)COc2ccccc2)s1` (stereo not shown) [CBK036976]: 114.191%. Consider `O=C(CSc1nc2ccccc2c(=O)[nH]1)NCCO` [CBK266469], for which the “% of control remaining” value is 99.7384%.

As to `O=C1CCC(=O)N1CCN1C(=O)C2(CC(=O)N(CCC(F)(F)F)C2=O)c2ccccc21` (stereo not shown) [CBK076031], the “% of control remaining” value was 101.274%.

Consider `CN(C)CCN(C)C(=O)c1ccc(-c2cc(C(F)(F)F)cc(C(F)(F)F)c2)nc1N(C)C` [CBK106069], for which the “% of control remaining” value was determined as 121.36%. In the case of `O=C(NC1CC1)c1ccc(-n2cccn2)c(C#Cc2cccnc2)c1` [CBK282449], the “% of control remaining” value is recorded as 144.577%.

Consider `O=C(O)C1CCCCN1Cc1ccccc1` (stereo not shown) [CBK261687], for which the “% of control remaining” value is reported as 100.917%. Take `Cc1cc(N2CCC(N(C)C)CC2)nc(N)n1` [CBK167267]: the “% of control remaining” value came to 134.714%. To `CC(C)NC(=O)NC(=O)C1CCN(CCOc2ccc(Cl)cc2Cl)CC1` [CBK034949] belongs 102.447%; to `O=C(Cn1c(=O)oc2ccccc21)Nc1ccc(S(=O)(=O)Nc2nccs2)cc1` [CBK267686], 120.379%.

Take `CCC1CCCCN1C(=O)c1cc(C)ccc1F` (stereo not shown) [CBK082754]: the “% of control remaining” value came out at 157.69%. The same measure for `Cn1c(C(=O)O)cc2cc(Oc3ccccc3)ccc21` [CBK286873]: 121.207%. The same measure for `CS(=O)(=O)N(CC(=O)O)c1ccc2c(c1)OCCO2` [CBK287151]: 122.976%.

On to `Nc1ccc(Sc2nc3ccccc3nc2C(F)(F)F)cc1` [CBK089560], for which the “% of control remaining” value was found to be 112.309%.

For the compound `Cc1ccccc1-n1ncc2c(=O)n(CC(=O)Nc3ccccc3)cnc21` [CBK287689], the “% of control remaining” value was determined as 118.134%.

For `O=c1[nH]cnc2c1cnn2Cc1ccccc1Cl` [CBK287999], the “% of control remaining” value was found to be 95.5081%. The same measure for `O=C(COc1ccccc1)Nc1ccccc1CO` [CBK263596]: 95.9712%. In the case of `COc1ccc2[nH]c(=O)c(CNc3ccc(CCc4nc5ccccc5n4C)cc3)cc2c1` [CBK286162], the “% of control remaining” value is recorded as 123.737%. To `Cc1cccc(-n2cnc3cc(C(=O)NCc4cccnc4)ccc32)c1` [CBK294455] belongs 146.85%. To `CN(CCN1CCCCC1)C(=O)c1cc2c([nH]1)CCCC2` [CBK281836] belongs 151.381%; to `O=C1CC(c2ccc(C(=O)O)cc2)c2sccc2N1` (stereo not shown) [CBK287119], 125.341%; to `CCCNS(=O)(=O)c1ccc(OCC(=O)N2CCN(C)CC2)c(C)c1` [CBK270169], 122.452%. To `O=C1NC/C=C/CC2(CCN(C(=O)CCc3cccnc3)CC2)C(=O)NCCOc2ccccc21` [CBK292007] belongs 128.842%.
